Data as given in article PMC6499997, “SGIP1α functions as a selective endocytic adaptor for the internalization of synaptotagmin 1 at synapses” (Molecular Brain, 2019).
These are yes or no findings as the source states them, for the method shown. Binding seen in cells or lysates may run through a third protein. Some entries that bind do so weakly or less than the wild type. Where a sequence is shown, tags or fusion partners need not be part of it.

Amino acid sequences for entries named in this document (tags omitted).
UniProt P21707: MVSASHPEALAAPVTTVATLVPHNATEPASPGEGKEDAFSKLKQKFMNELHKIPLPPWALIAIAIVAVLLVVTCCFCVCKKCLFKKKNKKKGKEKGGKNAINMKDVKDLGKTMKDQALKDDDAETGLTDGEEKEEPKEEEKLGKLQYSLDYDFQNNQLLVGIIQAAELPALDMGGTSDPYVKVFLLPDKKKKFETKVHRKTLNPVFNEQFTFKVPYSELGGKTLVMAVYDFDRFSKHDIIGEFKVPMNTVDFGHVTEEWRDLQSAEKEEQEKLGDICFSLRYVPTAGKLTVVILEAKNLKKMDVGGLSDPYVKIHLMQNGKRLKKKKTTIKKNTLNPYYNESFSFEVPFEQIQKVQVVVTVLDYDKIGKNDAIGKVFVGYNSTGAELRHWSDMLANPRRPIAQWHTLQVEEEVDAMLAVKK

Biological target: T1, GST-tagged SGIP1α (mouse) (UniProt Q8VD37)
T1 sequence: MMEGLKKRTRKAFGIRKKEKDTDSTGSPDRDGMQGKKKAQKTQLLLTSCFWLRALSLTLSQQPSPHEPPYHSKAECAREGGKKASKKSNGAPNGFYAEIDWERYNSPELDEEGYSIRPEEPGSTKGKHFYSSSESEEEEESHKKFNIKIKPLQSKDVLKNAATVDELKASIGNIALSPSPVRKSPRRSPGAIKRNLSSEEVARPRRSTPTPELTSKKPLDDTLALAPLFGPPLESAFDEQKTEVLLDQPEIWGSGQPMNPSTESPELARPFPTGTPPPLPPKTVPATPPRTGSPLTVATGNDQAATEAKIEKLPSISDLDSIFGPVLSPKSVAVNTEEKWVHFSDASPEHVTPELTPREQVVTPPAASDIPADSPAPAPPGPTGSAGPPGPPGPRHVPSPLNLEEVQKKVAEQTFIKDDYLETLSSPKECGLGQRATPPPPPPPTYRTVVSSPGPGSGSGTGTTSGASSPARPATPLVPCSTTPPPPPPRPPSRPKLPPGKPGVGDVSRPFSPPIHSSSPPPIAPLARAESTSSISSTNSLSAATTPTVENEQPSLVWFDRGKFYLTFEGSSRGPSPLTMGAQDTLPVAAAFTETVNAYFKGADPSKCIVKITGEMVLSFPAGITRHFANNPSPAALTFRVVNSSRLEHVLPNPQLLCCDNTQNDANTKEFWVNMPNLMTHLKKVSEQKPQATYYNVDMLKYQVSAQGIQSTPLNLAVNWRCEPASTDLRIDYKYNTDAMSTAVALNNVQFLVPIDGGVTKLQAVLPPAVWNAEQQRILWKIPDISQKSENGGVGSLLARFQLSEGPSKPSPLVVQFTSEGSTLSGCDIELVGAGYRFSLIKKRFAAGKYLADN
Assay: pull-down; purified GST-SGIP1α or GST-SGIP1α-μHD immobilised on glutathione-sepharose, incubated with rat hippocampal neuron lysate; bound proteins eluted by boiling, SDS-PAGE, Coomassie stain and blot with Syt1 antibody; only the target purified

binding: binds
Substance: synaptotagmin 1 (endogenous, rat hippocampal neurons) (from UniProt P21707 1-421)
